PubChem BioAssay AID651768 (National Center for Advancing Translational Sciences (NCATS), 2012)
In all, about 360,000 compounds went through this assay and about 1,700 (0.47%) were called active. The shares of active, inactive and inconclusive entries below differ from those in the screen. Calls follow the shape of the dose curve; as a rule, active = well fitted inhibition curve with a large enough effect; inconclusive = small, poorly fitted or top-dose-only effect; inactive = no such curve, though single readings can be large or run the other way. Potencies of inconclusive entries are doubtful fits and often do not repeat.

Chains of the proteins cited; added tags and fusions are not shown.
UniProt Q14191, whole entry, looked up: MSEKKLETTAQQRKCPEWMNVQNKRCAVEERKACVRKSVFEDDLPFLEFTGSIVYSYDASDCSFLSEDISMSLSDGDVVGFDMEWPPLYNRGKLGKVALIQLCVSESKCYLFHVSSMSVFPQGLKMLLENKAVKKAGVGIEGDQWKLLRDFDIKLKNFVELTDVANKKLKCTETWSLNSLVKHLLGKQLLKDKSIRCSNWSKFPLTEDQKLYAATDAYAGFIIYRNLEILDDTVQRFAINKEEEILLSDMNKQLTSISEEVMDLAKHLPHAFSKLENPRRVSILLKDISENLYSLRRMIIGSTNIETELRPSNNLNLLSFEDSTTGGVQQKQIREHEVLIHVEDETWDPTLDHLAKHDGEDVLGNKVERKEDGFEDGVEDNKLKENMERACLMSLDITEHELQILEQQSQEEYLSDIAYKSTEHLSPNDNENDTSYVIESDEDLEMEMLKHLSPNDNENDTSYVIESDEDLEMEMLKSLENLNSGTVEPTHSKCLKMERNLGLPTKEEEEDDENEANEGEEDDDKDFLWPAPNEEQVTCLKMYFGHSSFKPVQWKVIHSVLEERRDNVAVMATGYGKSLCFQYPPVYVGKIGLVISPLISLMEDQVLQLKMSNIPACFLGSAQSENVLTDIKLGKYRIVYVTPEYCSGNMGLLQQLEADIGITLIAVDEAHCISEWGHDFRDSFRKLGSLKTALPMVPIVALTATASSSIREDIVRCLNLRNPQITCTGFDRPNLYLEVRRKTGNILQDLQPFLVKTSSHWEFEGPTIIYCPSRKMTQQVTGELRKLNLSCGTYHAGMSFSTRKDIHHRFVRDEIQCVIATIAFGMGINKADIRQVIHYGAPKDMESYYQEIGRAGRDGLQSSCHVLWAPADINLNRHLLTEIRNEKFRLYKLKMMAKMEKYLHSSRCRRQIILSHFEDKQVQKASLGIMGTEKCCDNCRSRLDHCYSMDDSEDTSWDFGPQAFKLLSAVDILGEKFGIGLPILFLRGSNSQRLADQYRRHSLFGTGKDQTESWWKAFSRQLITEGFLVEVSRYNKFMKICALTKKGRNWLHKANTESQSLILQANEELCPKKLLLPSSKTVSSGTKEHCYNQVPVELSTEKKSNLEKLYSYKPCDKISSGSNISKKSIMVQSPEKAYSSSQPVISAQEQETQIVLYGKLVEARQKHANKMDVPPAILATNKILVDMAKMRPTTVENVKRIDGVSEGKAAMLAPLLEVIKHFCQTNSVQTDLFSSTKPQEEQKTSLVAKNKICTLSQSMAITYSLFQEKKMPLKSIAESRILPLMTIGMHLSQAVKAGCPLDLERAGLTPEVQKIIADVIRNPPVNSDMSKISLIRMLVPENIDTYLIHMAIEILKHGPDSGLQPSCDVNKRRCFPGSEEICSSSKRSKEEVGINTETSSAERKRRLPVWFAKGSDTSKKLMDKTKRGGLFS

biological target: Bifunctional 3'-5' exonuclease/ATP-dependent helicase WRN (Homo sapiens) (UniProt Q14191); experiment: qHTS for Inhibitors of WRN Helicase; conditions: WRN helicase unwinding, fluorescent forked duplex, kinetic; activity change, negative = inhibition: at 114 µM (top of the series) unless noted; also: nearly all actives have a fitted effect of over 55% in size
In short: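 Screening of the MLSMR collection measured strand separation of a quenched forked DNA duplex (100 nM) by 20 nM WRN with 2 mM ATP, all final. Compounds were preincubated with enzyme 15 min at room temperature.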
% is scaled to controls: 0 for no effect and ±100 for the full control effect; potency is read from the fitted curve at half-maximal effect.

SMILES	Potency	activity change, negative = inhibition
CCOC(=O)C(C(=O)OCC)c1cc(Br)c2noc3c2c1C(=O)c1ccccc1-3	inconclusive: 35.5 µM [inhibitor, partial curve]	–
Cn1cc([N+](=O)[O-])c(C(=O)Nc2ccc(-c3nc4ccccc4[nH]3)cc2)n1	inconclusive: 22.4 µM [inhibitor, full curve]	–
COc1ccccc1NC(c1cccnc1)c1ccc2cccnc2c1O (stereo not given)	inconclusive: 35.5 µM [inhibitor, partial curve]	–
Cc1ccnc(NC(=O)CS(=O)(=O)c2ccccc2)c1	–	inactive: 5.65%
Cc1cccc2nc(Cn3c(=O)n(CCCC(=O)NCc4ccco4)c(=O)c4ccccc43)cc(=O)n12	inconclusive: 12.6 µM [inhibitor, partial curve]	–
CCOC(=O)c1c(C)nc2ccccc2c1-c1ccccc1	inconclusive: 11.2 µM [inhibitor, partial curve]	–
CCn1c(SCC(=O)Nc2cc(OC)ccc2OC)nc2c(c1=O)SCC2	inconclusive: 100 µM [inhibitor, single point]	–
CC1CCN(CCOCCOc2ccccc2Br)CC1	inconclusive: 39.8 µM [inhibitor, single point]	–
COc1ccc2c3c(cccc13)OC2=O	–	inactive: 1.53%
O=C(O)C(c1ccccc1)N1C(=O)/C(=C\c2ccc(-c3cccc(Cl)c3)o2)SC1=S (stereo not given)	active: 44.7 µM	–
NS(=O)(=O)c1ccc(N=Nc2c[nH]c(=O)c(O)c2)cc1	inconclusive: 28.2 µM [inhibitor, single point]	–
CC1(OC(=O)CCc2ccccc2)C(=O)C=C2C=C(c3ccc(C#N)cc3)N(Cc3ccco3)C=C2C1=O (stereo not given)	–	inactive: -3.41%
CC(=O)Oc1ccc(N2C(=O)C3C4C=CC(C5CC45)C3C2=O)cc1[N+](=O)[O-] (stereo not given)	inconclusive: 10 µM [inhibitor, partial curve]	–
Cc1cccc(N=C2NC(=O)/C(=C/c3cccnc3)S2)c1	inconclusive: 56.2 µM [inhibitor, partial curve]	–
COC(=O)c1ccc2c(c1)SC1=C(CCCC1=O)N2	active: 79.4 µM	–
Cc1ccc(-n2nc(-c3ccco3)cc2C(=O)O)c(C)c1	inconclusive: 12.6 µM [inhibitor, partial curve, poor fit]	–
O=C(O)c1cnc(-c2ccccc2)nc1Sc1ccccc1	–	inactive: -10.1%
CCOc1cc(/C=C2\SC(=S)N(Nc3ccccc3)C2=O)ccc1O	active: 17.8 µM	–
O=C(/C=C/c1ccco1)c1cccnc1	inconclusive: 44.7 µM [inhibitor, partial curve]	–
CN1CCN(CC#Cc2ccccc2)CC1CCO (stereo not given)	inconclusive: 89.1 µM [inhibitor, single point]	–

Exported as comma-separated lines: entries from further up
SMILES,Potency,"activity change, negative = inhibition"
CCOc1cc(/C=C2\SC(=S)N(Nc3ccccc3)C2=O)ccc1O,active: 17.8 µM,–
O=C(/C=C/c1ccco1)c1cccnc1,"inconclusive: 44.7 µM [inhibitor, partial curve]",–
